Results are given in words; binding and its absence hold for the method and conditions named. Some entries that bind do so weakly or less than the wild type.

The target of this experiment is SHORT … PHASE (SVP) (Arabidopsis thaliana), Q9FVC1. Briefly: two-hybrid; yeast strain PJ69-4; bait and prey plasmids (pDEST22, pDEST32) in two mating types, mated; grown at 21°C on selective media lacking leucine, tryptophan and histidine. To be noted: remark: other sources report otherwise.

B1: MADS … FLOWERING2 splice variant 1 (MAF2var1), Q9FPN7 1-196 (protein)
chain: MGRKKVEIKRIENKSSRQVTFSKRRNGLIEKARQLSILCESSIAVLVVSGSGKLYKSASGDNMSKIIDRYEIHHADELEALDLAEKTRNYLPLKELLEIVQSKLEESNVDNASVDTLISLEEQLETALSVTRARKTELMMGEVKSLQKTENLLREENQTLASQVGKKTFLVIEGDRGMSWENGSGNKVRETLPLLK
Turning to B1, the binding entry is given as “binds”.

The values above are taken from paper PMC4425511.
